Results taken from patent US12578273B2, “Ph-reversible leuco-BODIPY probe for in situ visualization of extracellular vesicles and their secretion from living cells” (The Chinese University of Hong Kong, priority 2021, dated 2026).

Assay: Confocal imaging of phenol red-free medium with dye in the absence of seeded cells (false positive signals)

Row | Compound | fluorescence signals in medium without cells (50 nM dye, 3 h post-incubation) | fluorescence signals in medium without cells (2 μM dye, 3 h post-incubation) | fluorescence signals in medium without cells (2 μM dye, 15 h post-incubation)
1 | CN(C)CCNC(=O)CCc1ccc2n1[B-](F)(F)[N+]1=C(c3ccc[nH]3)C=CC1=C2 [LysoTracker™ Red, reference compound] | false positive dot-like or speck-like signals | severe background emission | 
2 | CCOC(=O)C(=Cc1ccc2n1[B-](F)(F)n1c(C=C(C(=O)OCC)C(=O)OCC)ccc1C2(OC)c1ccncc1)C(=O)OCC [leuco-BODIPY] |  | no detectable fluorescence | limited signals
